In article PMC6994238:
No constants are given. Whether binding was seen depends on the method and setting. Binding can be weak; no strength is given.

Biological target: FAP52, Chlamydomonas reinhardtii (Chlamydomonas reinhardtii)
Assay: cryo-EM structure; taxol-stabilised, 0.6 M NaCl-washed doublet microtubules isolated from Chlamydomonas flagella; 16 nm repeat map, focused refinement of the inner junction to 3.6 Å; atomic model PDB 6VE7

binding: binds
B1: FAP20, Chlamydomonas reinhardtii (protein, UniProt A8IU92 1-190)
chain: MFKNAFQSGFLSVLYSIGSKPLEIWDKQVSNGHIKRITDADIQSSVLEIMGQNVSTTYITCPADPNKTLGIKLPFLVLIIKNLNKYFSFEVQVLDDKNVRRRFRASNYQSTTRVKPFICTMPMRLDSGWNQIQFNLSDFTRRAYGTNYIETLRVQVHANCRIRRIYFSDRLYSEEELPAEFKLFLPIQKS
